The results in this text go back to patent US20050079503A1, “Binding domain of Siah (seven in absentia homolog) protein” (PETER MacCALLUM CANCER INSTITUTE, ST. VINCENT'S INSTITUTE …, priority 2001, published 2005).

These are yes or no findings as the source states them, for the method shown. Some results given as binding are weak or reduced against the parent protein; the word gives no strength. Tags and fused reporters may be left off the sequences shown.

The target of this assay is T1, MBP-Siah (UniProt P61092).
T1 sequence (looked up): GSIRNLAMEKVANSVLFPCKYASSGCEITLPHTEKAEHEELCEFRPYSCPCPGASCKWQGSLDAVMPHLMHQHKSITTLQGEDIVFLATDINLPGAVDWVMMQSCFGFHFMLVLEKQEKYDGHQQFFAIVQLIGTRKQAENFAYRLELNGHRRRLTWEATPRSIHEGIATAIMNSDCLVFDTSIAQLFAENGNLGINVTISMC
In words: competition ELISA: peptide competes with plate-bound GST-PHYL108-130 for MBP-Siah; anti-MBP and HRP antibody, ABTS.
QQERTKLRPVAMVRPTVRVQAQL [P (bar 21 of FIG 27)]: the binding entry is “binds”.
The value for QQERTALRPVAMVRPTVRVQPQL [K (bar 6 of FIG 27)] was “binds”.
The value for QQERTKLRPVAMVRPTVRVQPAL [Q (bar 22 of FIG 27)] was “binds”.
The value for QQERTKLRPVAMVRPTVRVAPQL [Q (bar 20 of FIG 27)] was “binds”.
For the molecule QQERTKLRPVAMVRPTVRVQPQA [L (bar 23 of FIG 27)], the binding result is listed as “binds”.
In the case of QQERTKLRAVAMVRPTVRVQPQL [P (bar 9 of FIG 27)], the binding result was “binds”.
The value for QAERTKLRPVAMVRPTVRVQPQL [Q (bar 2 of FIG 27)] was “binds”; that for QQERAKLRPVAMVRPTVRVQPQL [T (bar 5 of FIG 27)] was “binds”.
The value for QQERTKLRPVAMVAPTVRVQPQL [R (bar 14 of FIG 27)] was “binds”; that for QQERTKLRPVAAVRPTVRVQPQL [M (bar 12 of FIG 27)] was “binds”; that for QQERTKLRPVAMVRPTVAVQPQL [R (bar 18 of FIG 27, asterisk)] was “binds”.
The result for QQERTKLRPVAMVRPAVRVQPQL [T (bar 16 of FIG 27)] reads “binds”; that for QQERTKLRPVAMVRPTARVQPQL [V (bar 17 of FIG 27)], “binds”; that for QQERTKARPVAMVRPTVRVQPQL [L (bar 7 of FIG 27)], “binds”.
QQERTKLRPVGMVRPTVRVQPQL [A (bar 11 of FIG 27, asterisk)]: the binding result is listed as “binds”.
The value for QQARTKLRPVAMVRPTVRVQPQL [E (bar 3 of FIG 27)] was “binds”.
The value for QQERTKLAPVAMVRPTVRVQPQL [R (bar 8 of FIG 27, asterisk)] was “binds”.
Consider QQERTKLRPVAMVRPTVRAQPQL [V (bar 19 of FIG 27)], for which the binding entry was “binds”.
The value for QQEATKLRPVAMVRPTVRVQPQL [R (bar 4 of FIG 27)] was “binds”; that for AQERTKLRPVAMVRPTVRVQPQL [Q (bar 1 of FIG 27)] was “binds”.
